Source: ChEMBL document CHEMBL3988442, “University of Dundee, Small-Polar-MMV Screening Library” (2021).

Sequences of proteins named here, by UniProt entry; tags and fusion partners are left off.
UniProt E9BF75, entry or part of it: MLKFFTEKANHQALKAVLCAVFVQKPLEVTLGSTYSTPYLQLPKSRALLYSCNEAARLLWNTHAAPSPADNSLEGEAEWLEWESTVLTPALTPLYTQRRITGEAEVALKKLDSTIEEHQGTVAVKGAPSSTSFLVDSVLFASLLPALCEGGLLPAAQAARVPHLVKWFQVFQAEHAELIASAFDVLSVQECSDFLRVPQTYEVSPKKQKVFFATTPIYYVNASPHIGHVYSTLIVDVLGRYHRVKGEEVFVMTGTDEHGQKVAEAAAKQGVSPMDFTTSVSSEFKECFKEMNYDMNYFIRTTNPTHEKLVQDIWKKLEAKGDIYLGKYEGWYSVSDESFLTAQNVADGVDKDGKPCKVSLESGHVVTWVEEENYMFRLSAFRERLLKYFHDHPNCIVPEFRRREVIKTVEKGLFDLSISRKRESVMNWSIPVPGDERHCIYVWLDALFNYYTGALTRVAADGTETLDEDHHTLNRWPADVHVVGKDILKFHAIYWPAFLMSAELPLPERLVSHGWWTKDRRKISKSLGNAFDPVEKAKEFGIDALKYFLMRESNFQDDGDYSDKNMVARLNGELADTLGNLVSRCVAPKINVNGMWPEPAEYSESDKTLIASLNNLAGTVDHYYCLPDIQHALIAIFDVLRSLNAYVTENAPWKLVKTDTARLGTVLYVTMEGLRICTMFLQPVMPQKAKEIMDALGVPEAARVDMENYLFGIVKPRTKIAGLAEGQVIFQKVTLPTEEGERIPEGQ

Mtb heat-shock: 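Assay on Mycobacterium tuberculosis, filed only as a heat shock assay from Cornell; the read-out is not stated. The concentration is filed as 10 mM, unlikely as a test dose, so the dose is not known. Direction is inferred from retests: higher values go with stronger inhibition. Size under these conditions: about 69,000 compounds, about 930 of them at 50% or above in at least one test.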
Mtb growth Cornell: 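Whole-cell assay for inhibitors of Mycobacterium tuberculosis growth, labelled Cornell in the record; the read-out is not stated. The concentration is filed as 10 mM, unlikely as a test dose, so the dose is not known. The record gives no direction; compounds strong in two other growth screens of this library score well above the rest, so higher reads as stronger inhibition. Size under these conditions: about 53,000 compounds, about 900 of them at 50% or above in at least one test.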
LdMetRS: 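Primary screen of methionyl-tRNA synthetase; the read-out is not stated. Target: Methionyl-tRNA synthetase (putative), Leishmania donovani (UniProt E9BF75). The test concentration is not given. Values are per cent inhibition. Size under these conditions: about 68,000 compounds, about 24 of them at 50% or above in at least one test.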

All values are in %. The record does not define 0% and 100%; most values in the screen are far below 50% and negative numbers occur (in some assays of this library far below -100). The compounds are a random part of those screened. A dash means the value is not listed here; it may have been measured.

compound | Mtb heat-shock | Mtb growth Cornell | LdMetRS
CC(=O)c1ccc(CN2C[C@@H](CN3CCC(O)CC3)[C@@H](CO)C2)cc1 | 4.507 | -1.836 | 13.03
CCNc1cc2c(nn1)CCN(C(=O)c1cc3c(s1)CCOC3)C2 | 11.57 | -6.355 | 12.24
N#Cc1ccc(CN(CCF)Cc2cccc(F)c2)cc1 | -14.43 | -25.66 | 0.2793
CCN(CC)c1ncnc2c1CCN(C(=O)Cc1ccccn1)CC2 | - | - | 16.43
CC(C(=O)N1CCN(Cc2ccc(C#N)cc2)CC1)n1ccnc1 (stereo not given) | 1.704 | - | 10.38
CC1CN(C(=O)Nc2ccc(Cl)c(C(=O)NC3CC3)c2)CC(C)(C)O1 (stereo not given) | -1.923 | -6.462 | 11.82
Cl.N#Cc1ccc(CNCC2(c3ccccc3)CCOCC2)cc1 | 9.091 | 35.85 | -
O=C(c1ccncc1)N1CCN2C[C@H](Oc3cncnc3)C[C@H]2C1 | - | - | 14.01
Cc1ccc(C(=O)N2CC[C@H](Oc3cccnc3C)[C@@H](O)CC2)s1 | -6.255 | - | 10.12
Cc1ccc(C2CN(CCS(C)(=O)=O)CCO2)c(C)c1 (stereo not given) | 11.17 | 36.11 | 15.63
c1cc(-c2noc([C@@H]3Cc4nc[nH]c4CN3)n2)ccn1 | 1.518 | - | 8.791
CCc1nncn1CCNC(=O)N1CCCC(Cc2nccn2C)C1 (stereo not given) | -26.19 | -23.31 | 2.997
COc1ccc(CN(C)CC(=O)c2ccc3[nH]c(=O)[nH]c3c2)cc1F | 12.59 | 3.135 | 14.03
CCN1CCOC(CNc2nccc(C(F)(F)F)n2)C1 (stereo not given) | -35.06 | 11.03 | 9.924
CCCc1nc(NCc2c(C)nn(CCC)c2C)c2cnn(C)c2n1 | -14.81 | - | 10.66
CCc1ncc(CN2C[C@@H]3C[C@@H](O)CN3C[C@@H]2Cc2ccccc2)cn1 | - | - | 15.41
Cn1cc(CN2CCCC3(CCN(C(=O)c4cnccn4)C3)C2)cn1.O=C(O)C(F)(F)F.O=C(O)C(F)(F)F (stereo not given) | -7.49 | -33.94 | -
Cc1noc(C)c1CN1CCC(c2nc3cc(Cl)ccc3o2)CC1 | -15.5 | - | 8.629
O=C(NCCc1nc2ccccc2s1)c1coc(CN2CCOCC2)c1 | -31.74 | - | 0
[H][C@@]12OCCC[C@]1([H])N(C(=O)c1cccc(C)n1)C[C@@H]2NS(C)(=O)=O | -24.51 | 2.201 | -
c1c[nH]c(CN2CCCC(Cc3ccc(NC4CCCC4)nn3)C2)n1 (stereo not given) | 21.65 | -1.336 | 3.15
COc1ccccc1C1Cn2ccnc2CN1Cc1c[nH]nc1C (stereo not given) | -6.818 | 12.71 | 13.29
CC(C)c1cc(C(=O)N2CCc3nc(C4CCCN4)ncc3C2)cs1 (stereo not given) | - | - | 21.86
CC(=O)NCC1CCN(C(=O)c2ccc(Sc3ccccn3)cc2)CC1 | -18.24 | 15.2 | 17.16
COc1ncnc(N)c1CNCCOc1ccccc1Cl | 5.587 | 21.45 | 14.44
Cc1nnc2n1CCN(C(C(=O)N1CCCCC1)c1ccccc1)C2 (stereo not given) | -2.905 | - | 20.2
COCC1CN(Cc2c(C)noc2C)Cc2ccnn2C1 (stereo not given) | - | - | -5.397
O=S(=O)(NC1CCCN(c2ncccn2)C1)N1CCCCCC1 (stereo not given) | -6.154 | - | 8.696
CNC(=O)C1CN(C(C)C)CCN1c1nc(C)cc(C)n1 (stereo not given) | -2.285 | 7.562 | 14.92
COCC1c2c(cnn2CC2CC2)CCN1Cc1nccs1.O=C(O)C(F)(F)F.O=C(O)C(F)(F)F (stereo not given) | -6.12 | 19.7 | -
O=C1CC(c2ccncc2)C2(CCN(CC3CC3)CC2)N1 (stereo not given) | - | - | 2.466
COC1(CNS(=O)(=O)c2ccccc2Cl)CCSC1 (stereo not given) | 10.16 | -42.25 | 9.42
Cn1nc2c(cc1=O)CN(Cc1coc(-c3cccs3)n1)CC2 | 14.97 | 1.055 | 4.575
O=C1NCCCCC1SCc1coc(-c2cccc(F)c2)n1 (stereo not given) | -17.79 | 42.33 | 4.511
CCS(=O)(=O)Nc1cnn(Cc2cccc(F)c2)c1 | -2.05 | 14.06 | 17.2
CC(C)Nc1ncnc2c1CCN(Cc1ccoc1)CC2 | -3.91 | 41.75 | 18.27
CCC1(C)Cc2ccccc2-c2nc(NCCCO)nc(O)c21 (stereo not given) | -2.127 | 24.43 | 15.74
Cc1nc(C)n(C2CCCN(C(=O)c3ccc(O)nc3)C2)n1 (stereo not given) | 15.95 | - | 11.11
CC1c2ncc(COc3cccnc3)n2CCN1C(=O)C1=CCCC1.O=C(O)C(F)(F)F (stereo not given) | -2.792 | - | -
Cc1noc(C2(C)CCCN(C(=O)C(C)C)C2)n1 (stereo not given) | 15.59 | -55.48 | 15.75
CCN(CC)CC(=O)N1CCN(c2nc(C)cc(OC)n2)CC1 | 17.11 | - | 9.474
COCCN1CCC12CCN(C(=O)c1ccsc1)CC2.O=C(O)C(F)(F)F | 1.09 | 18.76 | -
CN1CC(=O)N(c2cccc(F)c2)CC12CCN(CC1CCOCC1)C2 (stereo not given) | - | - | 5
Cl.c1ccc(CN2CCNCC(Cc3cnccn3)C2)cc1 (stereo not given) | -10.09 | 10.98 | -
O=C(c1cccnc1)N1CCc2c(nc(N3CCCC3)[nH]c2=O)C1 | -10.77 | 19.88 | 16.15
Cc1cc(C)nc(N2CCC(Cn3cc(C(=O)N(C)C)cn3)CC2)n1 | 9.353 | 9.732 | 6.522
Cc1nnc(CN(C)C2CCN(Cc3nc4ccccc4n3C)C2)o1 (stereo not given) | 28.12 | 9.059 | 11.27
N#Cc1ccc(CN2CCCC2Cn2cccn2)c(F)c1 (stereo not given) | -10.54 | - | 20.11
Cc1nnc(CN2CCC(c3nc4cc(Cl)ccc4o3)CC2)n1C | 11.05 | - | 8.629
c1cnnc(N2CCCC(NCc3nnc(-c4ccco4)o3)C2)c1 (stereo not given) | 31.41 | -19.24 | 14.11
Cl.Cl.Cn1cc(CN2CCc3c(CNC(=O)C4CC4)cncc3C2)cn1 | -26.01 | 10.34 | -
Cl.Cn1nc(C2CCN(C(=O)CN3CCCCC3)CC2)c2cccnc21 | -23.31 | -47.37 | -
CC(C)COCC1CN(Cc2ccsc2)Cc2ncn(C)c21 (stereo not given) | -16.82 | - | -6.402
CCN(Cc1ccoc1)c1ncc(S(N)(=O)=O)s1 | -121.1 | - | 19.03
O=C(c1ccncc1)N1CCCC2(CCN(c3cccnc3)C2=O)C1 (stereo not given) | - | - | 9.589
COCCN(Cc1ccoc1)C(=O)c1c(F)cccc1Cl | -10.86 | 19.51 | 21.57
CCS(=O)(=O)N1CCOC2(CCCN(c3cnccn3)C2)C1.O=C(O)C(F)(F)F (stereo not given) | -5.607 | 18.26 | -
O=C(Cc1ccc2c(c1)CCO2)N1CCN(c2ccncc2)CC1 | -18.57 | - | 13.41
COc1ccccc1CC(=O)NS(=O)(=O)c1cncc(Br)c1 | -3.563 | 25.09 | -0.4049
Cc1cc(N2CCC(Cc3cnccn3)C2)ncn1 (stereo not given) | -6.502 | -10.71 | 18.9
c1csc(-c2noc(C3CCCOC3)n2)c1 (stereo not given) | 8.401 | - | 10.14
CCCC1CCCN(Cc2csc(-c3cnn(C)c3)n2)CC1 (stereo not given) | 101.6 | - | 27.55
COc1ccc(C2=CCN(C(=O)CN(CC(N)=O)C(C)C)CC2)cc1 | -11.06 | - | 18.31
COCCN1C(=O)C2(CCN(CC3CC3)CC2)c2ccccc21 | - | - | 17.01
O=C(NCC1SCCc2ccccc21)c1cscn1 (stereo not given) | 21.08 | - | 7.945
CC(C)(C)c1cc(CN2C[C@H]3CC[C@@H]2CN(Cc2ccccn2)C3)n[nH]1 | - | - | 6.65

Some entries from above, unchanged:

O=C(NCCc1nc2ccccc2s1)c1coc(CN2CCOCC2)c1 read Mtb heat-shock: -31.74%; LdMetRS: 0%.
COCC1c2c(cnn2CC2CC2)CCN1Cc1nccs1.O=C(O)C(F)(F)F.O=C(O)C(F)(F)F (stereo not given) read Mtb heat-shock: -6.12%; Mtb growth Cornell: 19.7%.
Cc1nnc(CN(C)C2CCN(Cc3nc4ccccc4n3C)C2)o1 (stereo not given) read Mtb heat-shock: 28.12%; Mtb growth Cornell: 9.059%; LdMetRS: 11.27%.
Cl.Cl.Cn1cc(CN2CCc3c(CNC(=O)C4CC4)cncc3C2)cn1 read Mtb heat-shock: -26.01%; Mtb growth Cornell: 10.34%.